No constants are given. Whether binding was seen depends on the method and setting. Binding seen in cells or lysates may run through a third protein. Some binding calls cover weakened binding; strength is not graded here.
Experiments:
[1] = molecular target: Lck/yes-related protein tyrosine kinase (Lyn) (human (endogenous in colon cancer cells)) (UniProt P07948); test: co-IP; Lyn antibody used to precipitate from colon cancer cells; partners detected by blot
[2] = molecular target: Lck/yes-related protein tyrosine kinase (Lyn) (human (endogenous in colon cancer cells)) (UniProt P07948); test: proximity ligation; NaveniFlex Cell MR Kit (Navinci); fixed colon cancer cells, primary antibodies to Lyn and RUVBL1, fluorescence microscopy
[3] = molecular target: Lyn SH2 truncated form with a Flag tag and a GFP tag (UniProt P07948); test: co-IP; 293T cells cotransfected with Flag/GFP-tagged Lyn truncated forms and HA/RFP-tagged RUVBL1
[4] = molecular target: Lyn SH3 truncated form with a Flag tag and a GFP tag (UniProt P07948); test: as above
GST-Lyn = GST-Lyn (UniProt P07948); test: pull-down; GST pull-down kit (Thermo Fisher Scientific); GST-Lyn from E. coli BL21 attached to a glutathione column; RUVBL1 overexpressed in 293T cells; eluate analysed by Western blotting; only the target purified
[5] = molecular target: T1, β-catenin (human (endogenous in colon cancer cells)), P35222; test: co-IP; IP in colon cancer cells; settings: remark: other sources report otherwise
T1 chain: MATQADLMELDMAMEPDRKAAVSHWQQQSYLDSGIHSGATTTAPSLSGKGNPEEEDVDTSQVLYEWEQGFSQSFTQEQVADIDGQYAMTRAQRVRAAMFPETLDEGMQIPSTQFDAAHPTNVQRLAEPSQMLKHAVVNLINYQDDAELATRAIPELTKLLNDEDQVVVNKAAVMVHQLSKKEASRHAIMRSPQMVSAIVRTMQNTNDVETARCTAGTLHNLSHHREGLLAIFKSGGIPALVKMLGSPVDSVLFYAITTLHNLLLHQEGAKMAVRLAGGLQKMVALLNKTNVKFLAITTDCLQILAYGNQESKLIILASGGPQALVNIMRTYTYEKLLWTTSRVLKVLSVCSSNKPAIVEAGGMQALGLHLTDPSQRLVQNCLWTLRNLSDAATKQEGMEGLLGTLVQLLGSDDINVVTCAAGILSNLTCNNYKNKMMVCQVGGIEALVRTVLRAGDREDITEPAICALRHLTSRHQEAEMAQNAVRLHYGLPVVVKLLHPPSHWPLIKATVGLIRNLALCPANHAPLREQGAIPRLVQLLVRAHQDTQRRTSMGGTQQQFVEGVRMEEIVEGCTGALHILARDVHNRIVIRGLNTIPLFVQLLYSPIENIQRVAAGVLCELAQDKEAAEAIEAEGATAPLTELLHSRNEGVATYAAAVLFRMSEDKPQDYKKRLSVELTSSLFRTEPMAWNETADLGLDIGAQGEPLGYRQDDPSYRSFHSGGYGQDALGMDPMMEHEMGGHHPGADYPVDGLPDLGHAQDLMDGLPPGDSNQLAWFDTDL

Sequences of proteins named here, by UniProt entry; tags and fusion partners are left off. A change or cut given only in a name is not applied to a line headed by its entry. A line that says so, or that is headed by a name, gives the form on record, which may keep a tag or linker. Residues count along the entry.
UniProt P07948: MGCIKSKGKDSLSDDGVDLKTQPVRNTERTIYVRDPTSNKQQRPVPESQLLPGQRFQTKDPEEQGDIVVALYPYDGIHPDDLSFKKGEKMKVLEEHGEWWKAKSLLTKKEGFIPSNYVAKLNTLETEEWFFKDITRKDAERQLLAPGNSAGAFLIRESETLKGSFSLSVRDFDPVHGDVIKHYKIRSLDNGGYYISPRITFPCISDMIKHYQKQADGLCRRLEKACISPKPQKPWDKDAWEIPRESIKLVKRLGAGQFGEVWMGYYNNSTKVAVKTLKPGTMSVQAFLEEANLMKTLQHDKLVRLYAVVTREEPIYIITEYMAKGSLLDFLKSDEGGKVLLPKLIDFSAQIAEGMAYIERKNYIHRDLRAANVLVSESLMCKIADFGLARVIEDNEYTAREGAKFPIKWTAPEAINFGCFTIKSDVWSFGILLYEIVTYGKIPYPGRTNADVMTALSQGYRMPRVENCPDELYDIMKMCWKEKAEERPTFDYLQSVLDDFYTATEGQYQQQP
Lyn SH3 truncated form with a Flag tag and a GFP tag: residues 63-123 of P07948
Lyn SH2 truncated form with a Flag tag and a GFP tag: residues 129-226 of P07948
UniProt Q9Y265: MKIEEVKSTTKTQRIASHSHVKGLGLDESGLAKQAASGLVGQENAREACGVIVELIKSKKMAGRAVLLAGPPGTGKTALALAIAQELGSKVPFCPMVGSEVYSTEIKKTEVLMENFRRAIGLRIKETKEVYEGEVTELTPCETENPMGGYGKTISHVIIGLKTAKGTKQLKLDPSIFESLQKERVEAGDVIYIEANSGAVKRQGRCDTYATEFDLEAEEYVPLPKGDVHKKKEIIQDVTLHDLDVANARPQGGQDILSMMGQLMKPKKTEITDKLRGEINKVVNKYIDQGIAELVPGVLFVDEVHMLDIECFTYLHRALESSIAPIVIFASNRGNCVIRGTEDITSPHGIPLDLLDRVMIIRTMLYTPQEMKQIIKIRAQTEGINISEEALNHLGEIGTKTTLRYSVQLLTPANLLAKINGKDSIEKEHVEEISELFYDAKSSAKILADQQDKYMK
UniProt Q07065: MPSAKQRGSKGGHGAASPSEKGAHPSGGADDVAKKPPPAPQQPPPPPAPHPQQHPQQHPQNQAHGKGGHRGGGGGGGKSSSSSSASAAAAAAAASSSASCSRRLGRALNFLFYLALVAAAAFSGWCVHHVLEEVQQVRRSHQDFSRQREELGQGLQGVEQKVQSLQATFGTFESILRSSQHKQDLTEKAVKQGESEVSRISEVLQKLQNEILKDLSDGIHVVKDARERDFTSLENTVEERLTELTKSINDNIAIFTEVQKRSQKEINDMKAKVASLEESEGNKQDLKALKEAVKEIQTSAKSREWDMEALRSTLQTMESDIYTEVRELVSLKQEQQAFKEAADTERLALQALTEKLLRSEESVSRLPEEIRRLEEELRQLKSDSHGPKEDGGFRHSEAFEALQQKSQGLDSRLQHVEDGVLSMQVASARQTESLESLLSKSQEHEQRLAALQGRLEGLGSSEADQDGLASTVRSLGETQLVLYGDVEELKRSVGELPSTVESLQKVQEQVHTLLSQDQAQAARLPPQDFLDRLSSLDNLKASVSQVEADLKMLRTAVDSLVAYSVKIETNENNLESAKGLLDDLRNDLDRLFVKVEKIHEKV

Molecule: ruvB like AAA ATPase 1 (RUVBL1) (from UniProt Q9Y265 1-456)
- binding [1]: binds
- binding [2]: binds

Molecule: cytoskeleton-associated protein 4 (CKAP4) (from UniProt Q07065 1-602)
- binding [1]: binds

Molecule: RUVBL1 tagged with an HA tag and an RFP tag (overexpression plasmid) (from UniProt Q9Y265 1-456)
- binding [3]: binds
- binding [4]: binds
- binding (GST-Lyn): binds

B1: tribbles homolog 3 (TRIB3), Q96RU7 1-358 (protein)
chain: MRATPLAAPAGSLSRKKRLELDDNLDTERPVQKRARSGPQPRLPPCLLPLSPPTAPDRATAVATASRLGPYVLLEPEEGGRAYQALHCPTGTEYTCKVYPVQEALAVLEPYARLPPHKHVARPTEVLAGTQLLYAFFTRTHGDMHSLVRSRHRIPEPEAAVLFRQMATALAHCHQHGLVLRDLKLCRFVFADRERKKLVLENLEDSCVLTGPDDSLWDKHACPAYVGPEILSSRASYSGKAADVWSLGVALFTMLAGHYPFQDSEPVLLFGKIRRGAYALPAGLSAPARCLVRCLLRREPAERLTATGILLHPWLRQDPMPLAPTRSHLWEAAQVVPDGLGLDEAREEEGDREVVLYG
- binding [5]: binds

B2: tight junction protein 2 (TJP2) (protein, UniProt Q9UDY2 1-1190)
chain: MPVRGDRGFPPRRELSGWLRAPGMEELIWEQYTVTLQKDSKRGFGIAVSGGRDNPHFENGETSIVISDVLPGGPADGLLQENDRVVMVNGTPMEDVLHSFAVQQLRKSGKVAAIVVKRPRKVQVAALQASPPLDQDDRAFEVMDEFDGRSFRSGYSERSRLNSHGGRSRSWEDSPERGRPHERARSRERDLSRDRSRGRSLERGLDQDHARTRDRSRGRSLERGLDHDFGPSRDRDRDRSRGRSIDQDYERAYHRAYDPDYERAYSPEYRRGARHDARSRGPRSRSREHPHSRSPSPEPRGRPGPIGVLLMKSRANEEYGLRLGSQIFVKEMTRTGLATKDGNLHEGDIILKINGTVTENMSLTDARKLIEKSRGKLQLVVLRDSQQTLINIPSLNDSDSEIEDISEIESNRSFSPEERRHQYSDYDYHSSSEKLKERPSSREDTPSRLSRMGATPTPFKSTGDIAGTVVPETNKEPRYQEDPPAPQPKAAPRTFLRPSPEDEAIYGPNTKMVRFKKGDSVGLRLAGGNDVGIFVAGIQEGTSAEQEGLQEGDQILKVNTQDFRGLVREDAVLYLLEIPKGEMVTILAQSRADVYRDILACGRGDSFFIRSHFECEKETPQSLAFTRGEVFRVVDTLYDGKLGNWLAVRIGNELEKGLIPNKSRAEQMASVQNAQRDNAGDRADFWRMRGQRSGVKKNLRKSREDLTAVVSVSTKFPAYERVLLREAGFKRPVVLFGPIADIAMEKLANELPDWFQTAKTEPKDAGSEKSTGVVRLNTVRQIIEQDKHALLDVTPKAVDLLNYTQWFPIVIFFNPDSRQGVKTMRQRLNPTSNKSSRKLFDQANKLKKTCAHLFTATINLNSANDSWFGSLKDTIQHQQGEAVWVSEGKMEGMDDDPEDRMSYLTAMGADYLSCDSRLISDFEDTDGEGGAYTDNELDEPAEEPLVSSITRSSEPVQHEESIRKPSPEPRAQMRRAASSDQLRDNSPPPAFKPEPPKAKTQNKEESYDFSKSYEYKSNPSAVAGNETPGASTKGYPPPVAAKPTFGRSILKPSTPIPPQEGEEVGESSEEQDNAPKSVLGKVKIFEKMDHKARLQRMQELQEAQNARIEIAQKHPDIYAVPIKTHKPDPGTPQHTSSRPPEPQKAPSRPYQDTRGSYGSDAEEEEYRQQLSEHSKRGYYGQSARYRDTEL
- binding [1]: binds

Source: publication PMC11792055
